Test results: the supplement of paper PMC12823440, “Inhibitors supercharge kinase turnover through native proteolytic circuits” (Nature, 2025)
Some of the results follow. The calls rarely recur for the same compound in another form.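 Kinases were expressed as nanoluciferase fusions in K562 cells and luminescence was read every 4 h between 2 and 18 h as percent of control, DMSO set to 100% and a positive control to 0%. A time point counts as decreased when the signal drops significantly (2 sigma). The hit call is the authors' own, does not follow from the count of time points alone, and its rule is not shown.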

By UniProt entry, the sequences of proteins in these tests, tags left out. Where a name states a change or a piece, a line headed by the entry shows the natural chain unless it says otherwise.
UniProt P07949, whole entry, looked up: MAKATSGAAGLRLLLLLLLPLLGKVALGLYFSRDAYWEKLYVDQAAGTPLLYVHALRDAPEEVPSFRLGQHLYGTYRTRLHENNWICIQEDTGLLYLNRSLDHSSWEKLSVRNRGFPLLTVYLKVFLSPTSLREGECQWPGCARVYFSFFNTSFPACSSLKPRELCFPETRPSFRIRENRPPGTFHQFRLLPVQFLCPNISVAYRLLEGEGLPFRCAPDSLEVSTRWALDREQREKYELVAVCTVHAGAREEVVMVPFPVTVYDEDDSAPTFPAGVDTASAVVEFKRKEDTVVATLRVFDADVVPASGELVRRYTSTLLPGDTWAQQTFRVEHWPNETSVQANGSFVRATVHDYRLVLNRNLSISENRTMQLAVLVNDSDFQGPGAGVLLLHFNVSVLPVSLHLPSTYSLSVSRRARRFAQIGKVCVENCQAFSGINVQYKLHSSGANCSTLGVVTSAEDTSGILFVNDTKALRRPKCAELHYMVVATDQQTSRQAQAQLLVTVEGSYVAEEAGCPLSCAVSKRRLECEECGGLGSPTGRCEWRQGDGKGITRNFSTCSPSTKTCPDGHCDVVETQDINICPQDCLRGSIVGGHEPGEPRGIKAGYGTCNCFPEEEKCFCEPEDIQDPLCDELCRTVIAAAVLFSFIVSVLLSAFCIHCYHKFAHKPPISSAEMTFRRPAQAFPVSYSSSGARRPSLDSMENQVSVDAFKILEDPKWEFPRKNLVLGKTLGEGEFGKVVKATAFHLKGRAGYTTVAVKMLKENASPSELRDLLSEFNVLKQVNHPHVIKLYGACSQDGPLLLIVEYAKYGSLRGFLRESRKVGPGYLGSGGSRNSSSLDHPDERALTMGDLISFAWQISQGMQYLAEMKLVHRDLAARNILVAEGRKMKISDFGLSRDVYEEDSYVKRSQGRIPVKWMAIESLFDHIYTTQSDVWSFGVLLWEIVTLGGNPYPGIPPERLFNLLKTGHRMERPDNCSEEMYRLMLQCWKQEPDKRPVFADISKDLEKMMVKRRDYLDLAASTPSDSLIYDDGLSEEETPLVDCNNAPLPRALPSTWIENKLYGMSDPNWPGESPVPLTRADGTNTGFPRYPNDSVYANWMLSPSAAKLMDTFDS
UniProt P07949, whole entry M918T, looked up: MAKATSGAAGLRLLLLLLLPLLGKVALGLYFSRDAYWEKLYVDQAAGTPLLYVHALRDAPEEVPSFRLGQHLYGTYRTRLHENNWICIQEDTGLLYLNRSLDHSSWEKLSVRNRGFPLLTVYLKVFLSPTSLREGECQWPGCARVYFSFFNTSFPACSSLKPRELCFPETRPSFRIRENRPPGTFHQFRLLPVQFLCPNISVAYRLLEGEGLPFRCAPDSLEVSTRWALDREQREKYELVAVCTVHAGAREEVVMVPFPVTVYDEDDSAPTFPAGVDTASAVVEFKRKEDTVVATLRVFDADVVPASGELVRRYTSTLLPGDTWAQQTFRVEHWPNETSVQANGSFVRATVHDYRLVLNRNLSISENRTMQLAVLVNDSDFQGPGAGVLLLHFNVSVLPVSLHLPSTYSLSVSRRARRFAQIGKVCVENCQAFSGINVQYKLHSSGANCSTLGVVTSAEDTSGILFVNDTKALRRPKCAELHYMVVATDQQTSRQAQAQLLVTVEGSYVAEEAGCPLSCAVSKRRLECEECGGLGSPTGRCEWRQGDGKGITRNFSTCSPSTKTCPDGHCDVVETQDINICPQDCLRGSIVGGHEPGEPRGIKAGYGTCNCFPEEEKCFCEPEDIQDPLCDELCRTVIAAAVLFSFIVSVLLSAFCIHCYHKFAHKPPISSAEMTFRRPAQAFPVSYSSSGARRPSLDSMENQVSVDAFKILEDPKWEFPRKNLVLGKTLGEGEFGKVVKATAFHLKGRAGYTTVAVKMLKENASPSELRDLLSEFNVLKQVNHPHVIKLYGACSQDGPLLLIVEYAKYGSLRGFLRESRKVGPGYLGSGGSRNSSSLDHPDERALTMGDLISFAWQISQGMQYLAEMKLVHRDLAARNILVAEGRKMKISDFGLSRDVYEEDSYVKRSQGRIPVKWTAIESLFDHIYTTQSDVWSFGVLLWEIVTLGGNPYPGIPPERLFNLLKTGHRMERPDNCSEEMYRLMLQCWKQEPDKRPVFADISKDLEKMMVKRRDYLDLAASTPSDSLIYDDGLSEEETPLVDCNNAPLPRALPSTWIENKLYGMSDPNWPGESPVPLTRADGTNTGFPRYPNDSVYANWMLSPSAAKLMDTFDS
UniProt Q9BRS2: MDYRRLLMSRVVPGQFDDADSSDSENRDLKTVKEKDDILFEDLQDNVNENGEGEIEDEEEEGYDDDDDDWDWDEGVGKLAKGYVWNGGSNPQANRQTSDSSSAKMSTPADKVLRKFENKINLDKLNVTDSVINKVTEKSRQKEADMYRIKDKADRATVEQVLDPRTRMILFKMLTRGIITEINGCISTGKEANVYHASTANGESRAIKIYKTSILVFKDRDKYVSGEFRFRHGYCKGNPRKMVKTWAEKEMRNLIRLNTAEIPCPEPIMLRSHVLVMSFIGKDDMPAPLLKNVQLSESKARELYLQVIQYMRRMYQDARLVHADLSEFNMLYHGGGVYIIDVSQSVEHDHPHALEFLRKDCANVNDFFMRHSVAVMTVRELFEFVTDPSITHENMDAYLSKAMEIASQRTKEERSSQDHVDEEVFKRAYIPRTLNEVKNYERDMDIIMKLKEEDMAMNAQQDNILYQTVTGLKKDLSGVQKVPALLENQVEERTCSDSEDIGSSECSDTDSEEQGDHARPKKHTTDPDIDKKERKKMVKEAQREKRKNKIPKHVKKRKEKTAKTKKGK
UniProt Q13546: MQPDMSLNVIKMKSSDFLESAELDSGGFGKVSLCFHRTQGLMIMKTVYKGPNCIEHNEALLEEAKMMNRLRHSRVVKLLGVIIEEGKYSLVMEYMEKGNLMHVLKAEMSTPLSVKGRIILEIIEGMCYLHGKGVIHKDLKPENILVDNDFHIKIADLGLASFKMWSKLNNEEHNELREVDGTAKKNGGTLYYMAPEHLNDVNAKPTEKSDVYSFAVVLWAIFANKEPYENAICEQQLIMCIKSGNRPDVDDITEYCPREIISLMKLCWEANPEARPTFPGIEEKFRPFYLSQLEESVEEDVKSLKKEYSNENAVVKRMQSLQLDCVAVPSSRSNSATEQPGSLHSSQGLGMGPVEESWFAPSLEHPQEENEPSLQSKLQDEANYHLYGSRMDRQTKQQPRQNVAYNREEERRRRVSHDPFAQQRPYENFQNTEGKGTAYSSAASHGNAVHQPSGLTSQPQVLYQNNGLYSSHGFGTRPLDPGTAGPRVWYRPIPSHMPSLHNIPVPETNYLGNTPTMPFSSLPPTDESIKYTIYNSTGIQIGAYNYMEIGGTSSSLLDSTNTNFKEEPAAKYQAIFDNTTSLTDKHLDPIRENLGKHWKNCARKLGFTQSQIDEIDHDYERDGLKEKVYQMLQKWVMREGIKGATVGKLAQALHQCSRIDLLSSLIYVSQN
UniProt Q01974, whole entry: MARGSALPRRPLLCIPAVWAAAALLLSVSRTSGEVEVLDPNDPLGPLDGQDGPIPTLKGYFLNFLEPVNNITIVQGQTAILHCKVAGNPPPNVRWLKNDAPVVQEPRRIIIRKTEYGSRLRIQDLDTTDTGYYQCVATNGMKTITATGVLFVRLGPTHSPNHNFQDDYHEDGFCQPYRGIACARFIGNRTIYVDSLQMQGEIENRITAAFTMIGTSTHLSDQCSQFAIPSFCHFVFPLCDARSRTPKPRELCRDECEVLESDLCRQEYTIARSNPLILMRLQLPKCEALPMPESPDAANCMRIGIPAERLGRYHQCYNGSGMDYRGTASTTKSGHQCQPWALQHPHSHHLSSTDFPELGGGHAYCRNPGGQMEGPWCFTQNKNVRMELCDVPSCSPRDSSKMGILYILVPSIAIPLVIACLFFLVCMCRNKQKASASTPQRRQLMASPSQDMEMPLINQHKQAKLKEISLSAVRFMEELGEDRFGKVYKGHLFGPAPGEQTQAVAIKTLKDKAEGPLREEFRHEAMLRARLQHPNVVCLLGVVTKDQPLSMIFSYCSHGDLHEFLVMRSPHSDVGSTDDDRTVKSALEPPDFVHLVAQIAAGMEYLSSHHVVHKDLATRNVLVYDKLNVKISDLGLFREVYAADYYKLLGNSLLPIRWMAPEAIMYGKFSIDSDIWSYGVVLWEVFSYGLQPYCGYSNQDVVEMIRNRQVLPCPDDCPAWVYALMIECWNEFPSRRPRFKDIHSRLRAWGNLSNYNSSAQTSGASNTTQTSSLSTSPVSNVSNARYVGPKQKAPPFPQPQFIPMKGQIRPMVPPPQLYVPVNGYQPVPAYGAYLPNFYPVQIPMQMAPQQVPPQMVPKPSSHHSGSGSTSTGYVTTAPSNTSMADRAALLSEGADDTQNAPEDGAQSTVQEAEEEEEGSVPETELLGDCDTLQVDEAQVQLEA
UniProt Q15418, whole entry: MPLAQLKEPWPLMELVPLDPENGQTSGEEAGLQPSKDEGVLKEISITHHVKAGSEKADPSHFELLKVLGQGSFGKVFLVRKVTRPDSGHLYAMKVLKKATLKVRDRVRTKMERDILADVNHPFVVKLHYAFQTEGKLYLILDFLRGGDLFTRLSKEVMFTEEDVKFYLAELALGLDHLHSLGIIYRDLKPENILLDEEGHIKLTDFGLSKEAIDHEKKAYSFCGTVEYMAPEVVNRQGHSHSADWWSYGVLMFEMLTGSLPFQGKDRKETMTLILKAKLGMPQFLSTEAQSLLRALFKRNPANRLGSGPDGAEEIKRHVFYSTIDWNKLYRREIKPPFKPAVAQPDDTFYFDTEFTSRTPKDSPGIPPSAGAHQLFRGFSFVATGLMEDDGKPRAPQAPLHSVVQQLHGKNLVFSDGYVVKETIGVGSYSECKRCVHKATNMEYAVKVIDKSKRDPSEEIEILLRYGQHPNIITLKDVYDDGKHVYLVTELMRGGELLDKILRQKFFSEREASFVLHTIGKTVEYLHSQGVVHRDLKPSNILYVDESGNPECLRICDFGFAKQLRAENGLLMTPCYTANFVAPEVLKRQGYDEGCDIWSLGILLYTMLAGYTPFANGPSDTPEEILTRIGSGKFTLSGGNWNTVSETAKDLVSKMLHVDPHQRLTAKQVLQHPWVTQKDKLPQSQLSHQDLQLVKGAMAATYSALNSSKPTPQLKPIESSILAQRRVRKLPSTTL
UniProt Q9NYA1, whole entry: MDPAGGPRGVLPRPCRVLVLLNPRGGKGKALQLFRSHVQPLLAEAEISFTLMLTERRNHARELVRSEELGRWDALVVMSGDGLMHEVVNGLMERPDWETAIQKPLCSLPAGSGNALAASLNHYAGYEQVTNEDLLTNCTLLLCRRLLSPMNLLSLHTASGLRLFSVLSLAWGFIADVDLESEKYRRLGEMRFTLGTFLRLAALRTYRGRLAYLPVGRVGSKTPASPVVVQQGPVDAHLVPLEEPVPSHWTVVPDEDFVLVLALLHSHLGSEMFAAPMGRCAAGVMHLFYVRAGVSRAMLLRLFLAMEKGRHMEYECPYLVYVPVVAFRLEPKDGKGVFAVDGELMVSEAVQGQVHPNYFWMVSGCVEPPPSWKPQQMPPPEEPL
UniProt Q9Y6E0: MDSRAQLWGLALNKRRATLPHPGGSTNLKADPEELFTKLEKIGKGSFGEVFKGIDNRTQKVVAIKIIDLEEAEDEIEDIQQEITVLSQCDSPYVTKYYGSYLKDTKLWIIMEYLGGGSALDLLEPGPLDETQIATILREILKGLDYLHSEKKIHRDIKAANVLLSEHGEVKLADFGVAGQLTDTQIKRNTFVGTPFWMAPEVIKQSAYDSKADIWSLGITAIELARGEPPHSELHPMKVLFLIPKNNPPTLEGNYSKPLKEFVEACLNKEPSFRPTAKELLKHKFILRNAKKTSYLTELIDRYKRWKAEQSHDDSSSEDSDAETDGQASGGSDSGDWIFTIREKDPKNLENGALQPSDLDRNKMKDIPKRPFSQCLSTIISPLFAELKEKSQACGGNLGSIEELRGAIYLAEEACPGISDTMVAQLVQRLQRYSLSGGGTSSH

Assays:
Assay in all cases: kinase-Nluc reporter destabilization hit call (1 = scored as downregulated) (binary); higher = compound decreases kinase abundance
Details in all cases: K562; 2-18 h
[1] = target: RET (UniProt P07949)
[2] = target: RET_M918T (clone: RET_mut) (UniProt P07949)
[3] = target: RIOK1 (UniProt Q9BRS2)
[4] = target: RIPK1 (UniProt Q13546)
[5] = target: RIPK2 (UniProt O43353)
[6] = target: ROR2 (UniProt Q01974)
[7] = target: RPS6KA1 (UniProt Q15418)
[8] = target: SPHK1 (UniProt Q9NYA1)
[9] = target: SRC (UniProt P12931)
[10] = target: STK24 (UniProt Q9Y6E0)

Measured: kinase-Nluc reporter destabilization hit call

CN(C)c1ccc(/C=C2\C(=O)Nc3ccccc32)c2ccccc12 (10 µM)
inactive: [1] 0 | [2] 0 | [3] 0 | [4] 0 | [5] 0 | [6] 0 | [7] 0 | [8] 0 | [9] 0 | [10] 0

S=C(NCc1ccc2c(c1)OCO2)N1CCN(c2ncnc3c2oc2ccccc23)CC1 [Amuvatinib] (2.5 µM)
inactive: [1] 0 | [2] 0 | [3] 0 | [4] 0 | [5] 0 | [6] 0 | [7] 0 | [8] 0 | [9] 0 | [10] 0

CCOC(=O)c1c(N2CCc3ccc(OC)cc3C2)oc(C=C2C=Nc3ncccc32)c1O (10 µM)
inactive: [1] 0 | [2] 0 | [3] 0 | [4] 0 | [5] 0 | [6] 0 | [7] 0 | [8] 0 | [9] 0 | [10] 0

Cn1c(N2CCO[C@@H](c3ccc(F)cc3)C2)nc(-c2ccncn2)cc1=O (10 µM)
inactive: [1] 0 | [2] 0 | [3] 0 | [4] 0 | [5] 0 | [6] 0 | [7] 0 | [8] 0 | [9] 0 | [10] 0
